Some of these results come from one statement about several compounds together.
Biological target: T1, HIV-1 integrase (Human immunodeficiency virus type 1 group M subtype B, UniProt P04585)
T1 construct: purified recombinant HIV-1 integrase; made in house
Assay: In vitro HIV-1 Integrase Assay
Type: biochemical
Conditions: anti-HIV-1 integrase activity, incubation over time

Structure (SMILES)	activation as a result of incubation in 0.1% NH4OH
O=C(OC(Cc1ccc(O)c(O)c1)C(=O)O)c1cc2ccc(O)c(O)c2cc1-c1ccc(O)c(O)c1 (stereo not drawn) [Compound 2]	time-dependent activation
O=C(OC(Cc1ccc(O)c(O)c1)C(=O)O)C1=Cc2ccc(O)c(O)c2C1=Cc1ccc(O)c(O)c1 (stereo not drawn) [Compound 3]	time-dependent activation
O=C(C=C1C(c2ccc(O)c(O)c2)=Cc2c1ccc(O)c2O)OC(Cc1ccc(O)c(O)c1)C(=O)O (stereo not drawn) [Compound 4]	time-dependent activation
